Patent US11078157B1, “Compound embodiments that release H2S by reaction with a reactive compound and methods of making and using the same” (University of Oregon, priority 2018, dated 2021)

Assay: Reaction product analysis (preparative isolation and HPLC)
Type: physicochemical
Conditions: 100 μM donor
Experimental: Compound 604a (0.39 mmol, 1.0 equivalents) was dissolved in 15 mL of 2:1 THF/PBS (10 mM, pH 7.4). L-cysteine methyl ester hydrochloride (1.17 mmol, 3.0 equivalents) was added in a single portion and stirred at room temperature for 2 hours. The reaction mixture was diluted with deionized H2O (˜20 mL) and extracted with CH2Cl2 (3×20 mL). The combined organic extracts were washed with brine and dried over MgSO4. After filtration, the solvent was removed under reduced pressure, and the purified by preparative thin layer chromatography (1:1 CH2Cl2 in hexanes). Compound 604a Rf=0.75 (63.6 mg, 76%) and CysDHT Rf=0.03 (11.0 mg, 13%) were isolated and characterized by ^1H and ^13C{^1H} NMR spectroscopy. The significant recovery of compound 604a is likely due to the lack of buffering capacity in the preparative-scale reaction.
To a 20 mL solution of 10% THF in PBS (10 mM, pH 7.4) containing 2 mM L-cysteine methyl ester (20 equivalents), 20 μL of 100 mM compound 604a in THF was added and stirred at room temperature. After 1 hour, a 1 mL reaction aliquot was analyzed by HPLC. HPLC analysis was performed on an Agilent 1260 HPLC instrument with a Poroshell 120 EC-C18 4.6×100 mm column and monitored at 280 nm. […] The concentration of CysDHT and phenol present at the end of the reaction were determined by measurement against calibration curves for each compound (see FIG. 4). […]

SMILES	formation of the expected dihydrothiazole, yield by HPLC (L-cysteine methyl ester 2 mM (20 equivalents), aliquot after 1 hour)	concentration of CysDHT after 1 hour (20 equivalents of cysteine, HPLC)
S=C(Sc1ccccc1)c1ccccc1 [compound 506a]	~61%	–
S=C(Oc1ccccc1)c1ccccc1 [compound 604a, O-Phenyl benzothioate]	–	~64 µM
